# The supplement of paper PMC8728848
# Some of the results follow.
# Legend:
# Assay in all cases: glycan array binding signal (z-score within array); higher = stronger binding
# Details in all cases: glycan notation: IUPAC condensed, linker removed
# [1] = target: Gal(b1-4)GlcNAc(b1-2)Man(a1-6)[Man(a1-3)]Man(b1-4)GlcNAc(b1-4)GlcNAc
# In short: (§1)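 From the Consortium for Functional Glycomics database, 3228 arrays were curated, keeping only those whose protein sequence was available. Binding is given as a within-array Z-score averaged across arrays sharing a protein sequence and across linkers. Negative Z-scores can be read as non-binding.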
# [2] = target: Gal(b1-4)GlcNAc(b1-2)[Gal(b1-4)GlcNAc(b1-4)]Man(a1-3)[Gal(b1-4)GlcNAc(b1-2)Man(a1-6)]Man(b1-4)GlcNAc(b1-4)GlcNAc
# In short: as §1
# [3] = target: Gal(b1-4)GlcNAc(b1-2)[Gal(b1-4)GlcNAc(b1-4)]Man(a1-3)[Gal(b1-4)GlcNAc(b1-2)[Gal(b1-4)GlcNAc(b1-6)]Man(a1-6)]Man(b1-4)GlcNAc(b1-4)GlcNAc
# In short: as §1
# [4] = target: Gal(b1-4)GlcNAc(b1-2)[Gal(b1-4)GlcNAc(b1-4)]Man(a1-3)[GlcNAc(b1-4)][Gal(b1-4)GlcNAc(b1-2)Man(a1-6)]Man(b1-4)GlcNAc(b1-4)GlcNAc
# In short: as §1
# [5] = target: Gal(b1-4)GlcNAc(b1-2)[Gal(b1-4)GlcNAc(b1-4)]Man(a1-3)[GlcNAc(b1-4)][Gal(b1-4)GlcNAc(b1-2)[Gal(b1-4)GlcNAc(b1-6)]Man(a1-6)]Man(b1-4)GlcNAc(b1-4)GlcNAc
# In short: as §1
# [6] = target: Gal(b1-4)GlcNAc(b1-2)[Gal(b1-4)GlcNAc(b1-6)]Man(a1-6)[Gal(b1-4)GlcNAc(b1-2)Man(a1-3)]Man(b1-4)GlcNAc(b1-4)GlcNAc
# In short: as §1
# [7] = target: Gal(b1-4)GlcNAc(b1-2)[Gal(b1-4)GlcNAc(b1-6)]Man(a1-6)[Gal(b1-4)GlcNAc(b1-2)Man(a1-3)]Man(b1-4)GlcNAc(b1-4)[Fuc(a1-6)]GlcNAc
# In short: as §1
# [8] = target: Gal(b1-4)GlcNAc(b1-2)[Gal(b1-4)GlcNAc(b1-6)]Man(a1-6)[GlcNAc(b1-4)][Gal(b1-4)GlcNAc(b1-2)Man(a1-3)]Man(b1-4)GlcNAc(b1-4)GlcNAc
# In short: as §1
# [9] = target: Gal(b1-4)GlcNAc(b1-2)[Gal(b1-4)GlcNAc(b1-6)]Man(a1-6)[GlcNAc(b1-4)][Gal(b1-4)GlcNAc(b1-2)[Gal(b1-4)GlcNAc(b1-4)]Man(a1-3)]Man(b1-4)GlcNAc(b1-4)[Fuc(a1-6)]GlcNAc
# In short: as §1
# [10] = target: Gal(b1-4)GlcNAc(b1-3)Gal(b1-3)GalNAc
# In short: as §1
# [11] = target: Gal(b1-4)GlcNAc(b1-3)Gal(b1-3)GlcNAc
# In short: as §1
# [12] = target: Gal(b1-4)GlcNAc(b1-3)Gal(b1-4)Glc
# In short: as §1
# [13] = target: Gal(b1-4)GlcNAc(b1-3)Gal(b1-4)GlcNAc
# In short: as §1
# [14] = target: Gal(b1-4)GlcNAc(b1-3)Gal(b1-4)GlcNAc(b1-2)Man(a1-3)[Gal(b1-4)GlcNAc(b1-3)Gal(b1-4)GlcNAc(b1-2)Man(a1-6)]Man(b1-4)GlcNAc(b1-4)GlcNAc
# In short: as §1
# [15] = target: Gal(b1-4)GlcNAc(b1-3)Gal(b1-4)GlcNAc(b1-2)Man(a1-3)[Gal(b1-4)GlcNAc(b1-3)Gal(b1-4)GlcNAc(b1-2)Man(a1-6)]Man(b1-4)GlcNAc(b1-4)[Fuc(a1-6)]GlcNAc
# In short: as §1
# [16] = target: Gal(b1-4)GlcNAc(b1-3)Gal(b1-4)GlcNAc(b1-2)[Gal(b1-4)GlcNAc(b1-3)Gal(b1-4)GlcNAc(b1-6)]Man(a1-6)[Gal(b1-4)GlcNAc(b1-3)Gal(b1-4)GlcNAc(b1-2)Man(a1-3)]Man(b1-4)GlcNAc(b1-4)GlcNAc
# In short: as §1
# [17] = target: Gal(b1-4)GlcNAc(b1-3)Gal(b1-4)GlcNAc(b1-2)[Gal(b1-4)GlcNAc(b1-3)Gal(b1-4)GlcNAc(b1-6)]Man(a1-6)[Gal(b1-4)GlcNAc(b1-3)Gal(b1-4)GlcNAc(b1-2)Man(a1-3)]Man(b1-4)GlcNAc(b1-4)[Fuc(a1-6)]GlcNAc
# In short: as §1
# [18] = target: Gal(b1-4)GlcNAc(b1-3)Gal(b1-4)GlcNAc(b1-3)Gal(b1-4)GlcNAc
# In short: as §1
binder,measurement,setting,value
"AntigenI/IIC123 (Streptococcus mutans), C9E3B4 (protein) MASMTGGQQMGRIHFHYFKLAVQPQVNKEIRNNNDINIDRTLVAKQSVVKFQLKTADLPAGRDETTSFVLVDPLPSGYQFNPEATKAASPGFDVTYDNATNTVTFKATAATLATFNADLTKSVATIYPTVVGQVLNDGATYKNNFTLTVNDAYGIKSNVVRVTTPGKPNDPDNPNNNYIKPTKVNKNENGVVIDGKTVLAGSTNYYELTWDLDQYKNDRSSADTIQKGFYYVDDYPEEALELRQDLVKITDANGNEVTGVSVDNYTNLEAAPQEIRDVLSKAGIRPKGAFQIFRADNPREFYDTYVKTGIDLKIVSPMVVKKQMGQTGGSYENQAYQIDFGNGYASNIIINNVPKINPKKDVTLTLDPADTNNVDGQTIPLNTVFNYRLIGGIIPADHSEELFEYNFYDDYDQTGDHYTGQYKVFAKVDITFKDGSIIKSGAELTQYTTAEVDTAKGAITIKFKEAFLRSVSIDSAFQAESYIQMKRIAVGTFENTYINTVNGVTYSSLEHHHHHH",glycan array binding signal (z-score),[1],-0.851
same,glycan array binding signal (z-score),[2],0.403
same,glycan array binding signal (z-score),[3],-0.85
same,glycan array binding signal (z-score),[4],-0.469
same,glycan array binding signal (z-score),[5],0.437
same,glycan array binding signal (z-score),[6],1
same,glycan array binding signal (z-score),[7],2.64
same,glycan array binding signal (z-score),[8],1.65
same,glycan array binding signal (z-score),[9],0.09
same,glycan array binding signal (z-score),[10],0.003
same,glycan array binding signal (z-score),[11],-0.666
same,glycan array binding signal (z-score),[12],-0.644
same,glycan array binding signal (z-score),[13],-0.529
same,glycan array binding signal (z-score),[14],0.498
same,glycan array binding signal (z-score),[15],1.21
same,glycan array binding signal (z-score),[16],1.01
same,glycan array binding signal (z-score),[17],4.84
same,glycan array binding signal (z-score),[18],-0.417
